# The list shows only some results of the screen, not a fair sample: it gathers tests that were run many times, whatever their T/C, doses with no T/C, and many T/C values between a quarter and a half above the control. Other doses and runs of a compound stand elsewhere. T/C gives the treated animals as a percentage of the vehicle group. Some doses have a count of surviving animals in place of a T/C: the source holds a T/C of zero for them, seemingly a mark for toxic or unscored doses. For some of these results: Survivors were counted at the toxicity check, usually on the fifth day, unless a day is given; later deaths do not show. Schedules are NCI's codes, read here as Q, the interval in days (D) or hours (H), X, the number of doses. For some of these results: For survival time, the PubChem record calls one and a half times the control and up active, and a quarter to a half above the control has no call in these data; cut-offs in other NCI protocols can differ. Some entries were tested several times; the values are given in rising order. Some schedule codes hold Z or #, which are not explained here. Some T/C values carry the count of animals alive at the toxicity check (mostly the fifth day); where none is given, no animal had died by that day.
# Assays:
# [1] = system: BDF1 mice, L1210 leukemia sc, survival T/C; test: NCI In Vivo Anticancer Drug Screen. Data for tumor model L1210 Leukemia (subcutaneous) in B6D2F1 (BDF1) mice; details: T/C endpoint: median survival time; dose: 625.0 mg/kg/injection; schedule: Q01DX001 (sc); vehicle: saline; higher T/C = longer survival
# Summary of the method: (§1)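 Expressed as T/C: measurement in compound-treated, tumor-bearing mice relative to vehicle-treated control mice, based on survival or tumor size.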
# [2] = system: BDF1 mice, L1210 leukemia sc; test: as above; details: T/C endpoint: median survival time, higher T/C = longer survival
# Summary of the method: as §1
smiles,measurement,setting,value
O=P1(N(CCCl)CCCl)NCCCO1 (stereo unspecified),survivor count,[1],0 of 8
same,T/C,"[2]; dose: 8.4 mg/kg/injection, schedule: Q#A X Z (sc), vehicle: saline",135 % of control
same,T/C,"[2]; dose: 12.5 mg/kg/injection, schedule: Q01DX009 (ip), vehicle: saline",147 % of control
same,T/C,"[2]; dose: 14.0 mg/kg/injection, schedule: Q01DX Z (sc), vehicle: saline, evaluated on day 34",131 % of control
same,T/C,"[2]; dose: 14.0 mg/kg/injection, schedule: Q01DX Z (sc), vehicle: saline, evaluated on day 40",130 % of control
same,T/C,"[2]; dose: 14.0 mg/kg/injection, schedule: Q01DX Z (sc), vehicle: saline, run until all animals had died",140 % of control
same,T/C,"[2]; dose: 23.0 mg/kg/injection, schedule: Q01DX Z (ip), vehicle: saline",135 % of control
same,T/C,"[2]; dose: 23.0 mg/kg/injection, schedule: Q01DX Z (oral), vehicle: saline",126 % of control
same,T/C,"[2]; dose: 23.0 mg/kg/injection, schedule: Q01DX Z (sc), vehicle: saline, evaluated on day 34",144 % of control
same,T/C,"[2]; dose: 23.0 mg/kg/injection, schedule: Q01DX Z (sc), vehicle: saline, run until all animals had died",130 % of control
same,T/C,"[2]; dose: 23.0 mg/kg/injection, schedule: Q02DX Z (sc), vehicle: saline",145 % of control
same,T/C,"[2]; dose: 25.0 mg/kg/injection, schedule: Q01DX009 (sc), vehicle: saline",129 and 137 % of control
same,T/C,"[2]; dose: 50.0 mg/kg/injection, schedule: Q01DX001 (sc), vehicle: saline, evaluated on day 7",144 % of control
same,T/C,"[2]; dose: 50.0 mg/kg/injection, schedule: Q01DX001 (sc), vehicle: saline, evaluated on day 40",144 % of control
same,T/C,"[2]; dose: 50.0 mg/kg/injection, schedule: Q07DX003 (sc), vehicle: saline, evaluated on day 7",136 % of control
same,T/C,"[2]; dose: 50.0 mg/kg/injection, schedule: Q07DX003 (sc), vehicle: saline, evaluated on day 40",133 % of control
same,T/C,"[2]; dose: 50.0 mg/kg/injection, schedule: Q07DX004 (sc), vehicle: saline, evaluated on day 7",137 % of control
same,T/C,"[2]; dose: 50.0 mg/kg/injection, schedule: Q07DX004 (sc), vehicle: saline, evaluated on day 40",133 % of control
same,T/C,"[2]; dose: 50.0 mg/kg/injection, schedule: Q08DX002 (sc), vehicle: saline, evaluated on day 7","130, 132, 133, 139 % of control"
same,T/C,"[2]; dose: 50.0 mg/kg/injection, schedule: Q08DX002 (sc), vehicle: saline, evaluated on day 21",130 % of control
same,T/C,"[2]; dose: 50.0 mg/kg/injection, schedule: Q08DX002 (sc), vehicle: saline, evaluated on day 36",133 % of control
same,T/C,"[2]; dose: 50.0 mg/kg/injection, schedule: Q08DX002 (sc), vehicle: saline, evaluated on day 37",133 % of control
same,T/C,"[2]; dose: 50.0 mg/kg/injection, schedule: Q08DX002 (sc), vehicle: saline, evaluated on day 43",144 % of control
same,T/C,"[2]; dose: 65.0 mg/kg/injection, schedule: Q01DX001 (sc), vehicle: other",134 % of control
same,T/C,"[2]; dose: 65.0 mg/kg/injection, schedule: Q01DX001 (sc), vehicle: saline, run until all animals had died",142 % of control
same,T/C,"[2]; dose: 65.0 mg/kg/injection, schedule: Q07DX003 (sc), vehicle: saline, evaluated on day 6",138 % of control
same,T/C,"[2]; dose: 65.0 mg/kg/injection, schedule: Q07DX003 (sc), vehicle: saline, evaluated on day 7",145 % of control
same,T/C,"[2]; dose: 65.0 mg/kg/injection, schedule: Q07DX003 (sc), vehicle: saline, evaluated on day 30",145 % of control
same,T/C,"[2]; dose: 65.0 mg/kg/injection, schedule: Q07DX003 (sc), vehicle: saline, evaluated on day 36",138 % of control
same,T/C,"[2]; dose: 65.0 mg/kg/injection, schedule: Q07DX Z (sc), vehicle: saline",138 % of control
same,T/C,"[2]; dose: 65.0 mg/kg/injection, schedule: Q08DX002 (sc), vehicle: saline, evaluated on day 7",136 and 142 % of control
same,T/C,"[2]; dose: 65.0 mg/kg/injection, schedule: Q08DX002 (sc), vehicle: saline, evaluated on day 32",133 % of control
same,T/C,"[2]; dose: 65.0 mg/kg/injection, schedule: Q08DX002 (sc), vehicle: saline, evaluated on day 36",144 % of control
same,T/C,"[2]; dose: 100.0 mg/kg/injection, schedule: Q01DX001 (sc), vehicle: saline, evaluated on day 7",141 % of control
same,T/C,"[2]; dose: 100.0 mg/kg/injection, schedule: Q01DX001 (sc), vehicle: saline, evaluated on day 32",145 % of control
same,T/C,"[2]; dose: 100.0 mg/kg/injection, schedule: Q01DX001 (sc), vehicle: saline, evaluated on day 34",135 % of control
same,T/C,"[2]; dose: 100.0 mg/kg/injection, schedule: Q01DX009 (ip), vehicle: saline",147 % of control
same,T/C,"[2]; dose: 100.0 mg/kg/injection, schedule: Q01DX009 (sc), vehicle: saline",127 % of control
same,T/C,"[2]; dose: 100.0 mg/kg/injection, schedule: Q08DX002 (sc), vehicle: saline, evaluated on day 7",134 % of control
same,T/C,"[2]; dose: 100.0 mg/kg/injection, schedule: Q08DX002 (sc), vehicle: saline, evaluated on day 34",130 % of control
same,T/C,"[2]; dose: 108.0 mg/kg/injection, schedule: Q01DX Z (oral), vehicle: saline",133 % of control
same,T/C,"[2]; dose: 108.0 mg/kg/injection, schedule: Q01DX Z (sc), vehicle: saline, evaluated on day 36",143 % of control
same,T/C,"[2]; dose: 108.0 mg/kg/injection, schedule: Q01DX Z (sc), vehicle: saline, evaluated on day 60",145 % of control
same,T/C,"[2]; dose: 180.0 mg/kg/injection, schedule: Q01DX001 (sc), vehicle: saline, evaluated on day 7",142 and 145 % of control
same,T/C,"[2]; dose: 180.0 mg/kg/injection, schedule: Q01DX001 (sc), vehicle: saline, evaluated on day 30",145 % of control
same,T/C,"[2]; dose: 180.0 mg/kg/injection, schedule: Q01DX001 (sc), vehicle: saline, evaluated on day 32",138 % of control
same,T/C,"[2]; dose: 180.0 mg/kg/injection, schedule: Q01DX Z (sc), vehicle: saline, evaluated on day 34",133 % of control
same,T/C,"[2]; dose: 300.0 mg/kg/injection, schedule: Q01DX001 (sc), vehicle: saline, evaluated on day 7",142 % of control
same,T/C,"[2]; dose: 300.0 mg/kg/injection, schedule: Q01DX001 (sc), vehicle: saline, evaluated on day 32",138 % of control
same,T/C,"[2]; dose: 300.0 mg/kg/injection, schedule: Q01DX Z (oral), vehicle: saline",133 % of control
same,T/C,"[2]; dose: 300.0 mg/kg/injection, schedule: Q07DX003 (sc), vehicle: saline, evaluated on day 7",135 % of control
same,T/C,"[2]; dose: 300.0 mg/kg/injection, schedule: Q07DX003 (sc), vehicle: saline, evaluated on day 30",126 % of control [6 of 8 alive]
same,T/C,"[2]; dose: 300.0 mg/kg/injection, schedule: Q08DX003 (ip), vehicle: saline",147 % of control
same,T/C,"[2]; dose: 400.0 mg/kg/injection, schedule: Q01DX001 (sc), vehicle: saline, evaluated on day 7",141 % of control
same,T/C,"[2]; dose: 400.0 mg/kg/injection, schedule: Q01DX001 (sc), vehicle: saline, evaluated on day 37",138 % of control
same,T/C,"[2]; dose: 400.0 mg/kg/injection, schedule: Q07DX003 (sc), vehicle: saline, evaluated on day 7",131 % of control
same,T/C,"[2]; dose: 400.0 mg/kg/injection, schedule: Q07DX003 (sc), vehicle: saline, evaluated on day 40",127 % of control
same,T/C,"[2]; dose: 400.0 mg/kg/injection, schedule: Q07DX004 (sc), vehicle: saline",144 % of control
same,T/C,"[2]; dose: 400.0 mg/kg/injection, schedule: Q08DX002 (sc), vehicle: saline, evaluated on day 7","126, 130, 131 % of control"
same,T/C,"[2]; dose: 400.0 mg/kg/injection, schedule: Q08DX002 (sc), vehicle: saline, evaluated on day 34",125 % of control [9 of 10 alive]
same,T/C,"[2]; dose: 400.0 mg/kg/injection, schedule: Q08DX002 (sc), vehicle: saline, evaluated on day 37",127 % of control [7 of 8 alive]

# Source: PubChem BioAssay AID250 (DTP/NCI, 2004)
